In PMC8596843, “Platinum Cyclooctadiene Complexes with Activity against Gram‐positive Bacteria” (Chemmedchem, 2021):

System: Staphylococcus aureus ATCC 43300 (MRSA)
Format: cell-based
Details: against MRSA, relative to in vitro toxicity
Procedure: All compounds submitted to CO‐ADD are initially screened against five bacterial strains (Staphylococcus aureus (MRSA), E. coli, Klebsiella pneumoniae, Pseudomonas aeruginosa, Acinetobacter baumannii) and two fungal strains (Candida albicans, Cryptococcus neoformans) at a single concentration (32 μg/mL or 20 μM) performed as a high‐throughput primary screening.[[11], [17a]] Any compounds that show significant growth inhibition against any of the tested strains at this step are then evaluated in a dose‐response assay against these same strains. […]
Smiles: C1C=CCCC(=CC1)C1=CCCC=CCC1.C[Pt]C.C[Pt]C […]
For all the bacterial assays, each strain was cultured in Cation-adjusted Mueller Hinton broth (CAMHB; Bacto Laboratories 212322) at 37 °C overnight. […] The resultant mid-log phase cultures were diluted with CAMHB (CFU mL−1 measured by OD600), then added to each well of the compound-containing plates (384-well non-binding surface (NBS) plates; Corning CLS3640), giving a cell density of 5 × 10^5 CFU mL−1 and a total volume of 50 μL. […] Inhibition of bacterial growth was determined measuring absorbance at 600 nm (OD600), using media only as negative control and bacteria without inhibitors as positive control. […]

Row | SMILES | therapeutic index
1 | C1=C\CC/C=C\CC/1.[Cl-].[Cl-].[Pt+2] [Pt1, Pt(COD)Cl2] | > 100
2 | C1=CCC/C=C\CC1.[I][Pt][I] [Pt2, Pt(COD)I2] | > 100
